# PubChem BioAssay AID743454 – Peter MacCallum Cancer Centre | 2014
# Test: 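Knock-downs lowering viability or raising caspase 3/7 activity in vorinostat-treated resistant cells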 (primary screen)
# System: human HCT116-VR colon cancer cells, selected for vorinostat resistance
# Reagent: siRNA pool against human genes, 40 nM siRNA pool
# Time to read-out: vorinostat for 24 h, read-out about 72 h after transfection
# Conditions: vorinostat at 2.5 µM final
# Measured: 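Two measures, CellTiter-Fluor viability and luminescent caspase 3/7 activity, each as fold change against same-plate mock wells, mean of duplicates, then screen-wide robust z-score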
# Direction: viability robust z-score: higher = more viable cells than screen typical; caspase robust z-score: higher = more caspase 3/7 activity than screen typical
# Call rule: 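Hits are knock-downs in viability class RV1/RV2 or caspase class CA1/CA2, excluding ones that killed cells in the no-drug cell-count arm; hits then retested with single siRNAs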
# This is one part, drawn at random, of about 18,000 deposited reagents. Of all reagents, 450 (2.5%) are marked active. 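Single biological run; no consistent viability z cut-off exists, so the class columns, not z-scores, define the calls.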
target,PubChem SID,viability hit class,caspase hit class,viability robust z-score,caspase robust z-score,Outcome
MRGPRE,SID152149442,no change,no change,-1.21,2.1,inactive
PBOV1,SID152154505,no change,no change,0.06,0.32,inactive
SOX30,SID134316631,no change,no change,1.31,0.28,inactive
TCEAL7,SID135623112,no change,no change,-0.87,1.42,inactive
LATS1,SID56478819,no change,no change,0.32,-0.52,inactive
ADCY3,SID152153922,no change,no change,0.18,-0.88,inactive
DOK6,SID152149657,no change,no change,-0.42,-1.39,inactive
FBL,SID134315619,no change,no change,-2.48,-0.1,inactive
SDSL,SID134313188,no change,no change,0.91,0.72,inactive
MYO5A,SID152155770,no change,no change,1.15,0.53,inactive
RBMS1,SID134315720,no change,no change,-0.32,0.19,inactive
MAP3K10,SID56478692,no change,no change,0.29,-0.06,inactive
TEX19,SID134329614,no change,no change,-1.29,0.96,inactive
PSTK,SID134320501,no change,no change,-0.24,-0.23,inactive
ZNF227,SID135623567,no change,no change,1.98,-0.68,inactive
JAM3,SID134321290,no change,no change,-1.22,1.07,inactive
PIK3CD-AS1,SID135625492,no change,no change,-0.16,0.7,inactive
CCL22,SID135621451,no change,no change,0.16,-1.21,inactive
TBCCD1,SID152148649,no change,no change,1.61,1.31,inactive
TUBD1,SID135621263,no change,no change,-1.23,0.28,inactive
POU5F2,SID134320709,no change,no change,-1.4,-0.58,inactive
KLHDC1,SID134320646,no change,no change,-0.36,-1.4,inactive
NDE1,SID134324297,no change,no change,-3.91,0.34,inactive
EIF3H,SID152153620,no change,no change,-0.5,-0.57,inactive
H2AC13,SID135622124,no change,no change,-1.1,-0.62,inactive
KCTD6,SID134320597,no change,no change,0.42,-0.98,inactive
OLFML2B,SID134325278,no change,no change,1.21,0.54,inactive
E2F6,SID152155350,no change,no change,0.46,-0.4,inactive
NSFL1C,SID134321172,no change,no change,-1.49,-0.91,inactive
CREB3L1,SID152148691,no change,no change,-1.86,-0.24,inactive
SPINDOC,SID134326598,no change,no change,-0.48,0.16,inactive
SERHL,SID135623207,no change,no change,1.43,-0.35,inactive
OR14C36,SID152151454,no change,no change,0.48,-0.04,inactive
TACR2,SID152148182,no change,no change,0.78,-0.3,inactive
SUMO1,SID135623065,no change,no change,-2.17,-0.86,inactive
PTPRN,SID134314074,no change,no change,-0.76,0.77,inactive
OR4K5,SID134329926,no change,CA1 (caspase activation),-1.52,5.21,active
ERAS,SID134313957,no change,no change,-0.14,-0.52,inactive
RAB32,SID152149943,no change,no change,-1.32,-0.9,inactive
AP3M2,SID152149227,no change,no change,-0.26,-1.07,inactive
CD52,SID135623761,no change,no change,-1.02,-0.77,inactive
STAU1,SID152154991,no change,no change,0.82,0.26,inactive
RRH,SID152148437,no change,no change,0.24,-0.03,inactive
CTF1,SID134323916,no change,no change,0.02,-1.01,inactive
PRORSD1P,SID152156151,no change,no change,1.09,1.66,inactive
RAD51AP1,SID152148447,no change,no change,-0.82,1.1,inactive
WDR91,SID134324317,no change,no change,0.22,0.18,inactive
TASOR,SID152146964,no change,no change,-0.24,0.76,inactive
MMP16,SID152154796,no change,no change,0.03,-0.47,inactive
SEC11B,SID152147948,no change,no change,-0.16,1.73,inactive
TTC39B,SID134320748,no change,no change,0.62,1.52,inactive
UBL3,SID134317038,no change,no change,0.36,-0.73,inactive
FOXG1,SID134322933,no change,no change,-0.28,1.5,inactive
EZH2,SID135620794,no change,no change,0.09,1.54,inactive
RAPGEF5,SID134313122,no change,no change,-0.17,-0.57,inactive
H3-5,SID135625308,no change,no change,0.12,0.18,inactive
ROR2,SID56478550,no change,no change,0.34,0.79,inactive
RASGRF2,SID56479299,no change,no change,-0.45,-0.02,inactive
OTOR,SID134321327,no change,no change,0.91,0.32,inactive
CCDC9,SID134324004,no change,no change,-1.11,1,inactive
SLC22A6,SID134312503,no change,no change,-0.5,-0.08,inactive
ACTRT1,SID152154462,no change,no change,-2.52,-0.24,inactive
ASGR2,SID152154811,no change,no change,-1,-1.12,inactive
RBM26,SID134322900,no change,no change,-0.64,-0.78,inactive
ZDHHC13,SID135624000,no change,no change,-0.25,-1.06,inactive
ZNF658,SID135622674,no change,no change,-0.68,-0.12,inactive
HAUS1,SID134319531,no change,no change,0.92,1.92,inactive
ACOT6,SID135625419,no change,no change,-0.14,-0.77,inactive
APOC2,SID134315339,no change,no change,-0.15,1.05,inactive
AAMP,SID152149622,no change,no change,-0.76,-0.52,inactive
ANAPC10,SID135621623,no change,no change,-1.15,-0.07,inactive
MXRA8,SID135625196,no change,no change,1.47,-0.5,inactive
NHLRC1,SID134326885,no change,no change,1.01,-0.38,inactive

Part of the list above, reformatted:
target	PubChem SID	viability hit class	caspase hit class	viability robust z-score	caspase robust z-score	Outcome
CCDC9	SID134324004	no change	no change	-1.11	1	inactive
SLC22A6	SID134312503	no change	no change	-0.5	-0.08	inactive
ACTRT1	SID152154462	no change	no change	-2.52	-0.24	inactive
ASGR2	SID152154811	no change	no change	-1	-1.12	inactive
RBM26	SID134322900	no change	no change	-0.64	-0.78	inactive
ZDHHC13	SID135624000	no change	no change	-0.25	-1.06	inactive
ZNF658	SID135622674	no change	no change	-0.68	-0.12	inactive
HAUS1	SID134319531	no change	no change	0.92	1.92	inactive
ACOT6	SID135625419	no change	no change	-0.14	-0.77	inactive
APOC2	SID134315339	no change	no change	-0.15	1.05	inactive
AAMP	SID152149622	no change	no change	-0.76	-0.52	inactive
ANAPC10	SID135621623	no change	no change	-1.15	-0.07	inactive
